This experiment has as its target β-stranded Hsc70 SBD subdomain (SBDβ) (human) (UniProt P11142). The experiment in a line: NMR titration; unlabelled SBDβ added to labelled DNAJB1 JD-GF-α5; ratio of the resonance intensities in the apo versus the SBDβ bound samples; 25 °C; both purified.

Amino acid sequences for entries named in this document (tags omitted). A change or cut given only in a name is not applied to a line headed by its entry. Residues count along the entry.
UniProt P11142: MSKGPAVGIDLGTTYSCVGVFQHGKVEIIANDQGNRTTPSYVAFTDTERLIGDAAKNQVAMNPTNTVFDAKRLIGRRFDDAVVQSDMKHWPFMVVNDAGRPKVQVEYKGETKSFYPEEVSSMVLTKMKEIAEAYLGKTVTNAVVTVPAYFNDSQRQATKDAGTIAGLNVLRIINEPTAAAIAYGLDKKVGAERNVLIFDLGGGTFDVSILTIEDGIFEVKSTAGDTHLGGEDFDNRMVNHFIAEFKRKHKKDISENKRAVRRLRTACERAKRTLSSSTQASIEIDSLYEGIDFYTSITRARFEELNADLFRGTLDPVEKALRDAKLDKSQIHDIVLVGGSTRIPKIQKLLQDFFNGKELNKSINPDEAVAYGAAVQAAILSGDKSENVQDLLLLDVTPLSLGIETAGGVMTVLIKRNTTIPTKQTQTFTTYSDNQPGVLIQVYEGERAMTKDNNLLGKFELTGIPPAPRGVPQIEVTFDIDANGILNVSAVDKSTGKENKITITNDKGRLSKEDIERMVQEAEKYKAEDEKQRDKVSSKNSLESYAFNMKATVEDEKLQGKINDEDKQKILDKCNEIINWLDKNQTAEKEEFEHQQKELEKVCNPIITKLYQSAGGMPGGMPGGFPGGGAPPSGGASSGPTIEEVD
UniProt P25685, residues 1-110: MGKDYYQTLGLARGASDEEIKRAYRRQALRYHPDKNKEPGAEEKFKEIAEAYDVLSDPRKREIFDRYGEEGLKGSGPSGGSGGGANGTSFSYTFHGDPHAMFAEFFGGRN

No constants are given. Whether binding was seen depends on the method and setting. Binding can be weak; no strength is given.

For “DNAJB1 JD-GF-α5 (from UniProt P25685 1-110) (domain or fragment)”, the binding entry is on record as “binds”.
